Test: general procedure: solution-phase peptide synthesis; HATU/DIEA
Conditions: for conjugation yield: conjugation step; for final HPLC purity: 210 nm; for final purity (method not given): LC/MS/UV, 254 nm

| Substance | step yield (late stage modification step) [%] | final HPLC purity (late stage modification step) [%] | also measured |
| --- | --- | --- | --- |
| methyl (S)-2-((2R,3R)-3-((S)-1-((3R,4S,5S)-4-((S)-2-amino-N,3-dimethylbutanamido)-3-methoxy-5-methylheptanoyl)pyrrolidin-2-yl)-3-methoxy-2-methylpropanamido)-3-phenylpropanoate | 81 | – | – |
| methyl (S)-2-((2R,3R)-3-((S)-1-((3R,4S,5S)-4-((S)-2-((((9H-fluoren-9-yl)methoxy)carbonyl)amino)-N,3-dimethylbutanamido)-3-methoxy-5-methylheptanoyl)pyrrolidin-2-yl)-3-methoxy-2-methylpropanamido)-3-phenylpropanoate | – | – | step yield (coupling step): 34% |
| N—((S)-1-(((S)-1-((4-((3R,4S,7S,10S)-4-((S)-sec-butyl)-7,10-diisopropyl-3-(2-((S)-2-((1R,2R)-1-methoxy-2-methyl-3-oxo-3-(((S)-2-phenyl-1-(thiazol-2-yl)ethyl)amino)propyl)pyrrolidin-1-yl)-2-oxoethyl)-5,11-dimethyl-6,9-dioxo-2-oxa-5,8,11-triazatridecan-13-yl)phenyl)amino)-1-oxo-5-ureidopentan-2-yl)amino)-3-methyl-1-oxobutan-2-yl)-6-(2,5-dioxo-2,5-dihydro-1H-pyrrol-1-yl)hexanamide 2,2,2-trifluoroacetate | – | – | conjugation yield: 70% |
| (S)-2-((2R,3R)-3-((S)-1-((8S,11S,14S,15R)-14-((S)-sec-butyl)-8,11-diisopropyl-15-methoxy-7,13-dimethyl-9,12-dioxo-2,7,10,13-tetraazaheptadecan-17-oyl)pyrrolidin-2-yl)-3-methoxy-2-methylpropanamido)-3-phenylpropanoic acid | 31 | 100 | – |
| methyl (S)-2-((2R,3R)-3-((S)-1-((3R,4S,5S)-4-((S)-2-((S)-2-((4-hydroxyphenethyl)(methyl)amino)-3-methylbutanamido)-N,3-dimethylbutanamido)-3-methoxy-5-methylheptanoyl)pyrrolidin-2-yl)-3-methoxy-2-methylpropanamido)-3-phenylpropanoate | – | – | step yield (coupling step): 3%; final HPLC purity (coupling step): 89.1% |
| (S)—N-((3R,4S,5S)-3-methoxy-1-((S)-2-((1R,2R)-1-methoxy-2-methyl-3-oxo-3-(((S)-2-phenyl-1-(thiazol-2-yl)ethyl)amino)propyl)pyrrolidin-1-yl)-5-methyl-1-oxoheptan-4-yl)-N,3-dimethyl-2-((R)-3-methyl-2-(methyl(2-(2-(methylamino) ethoxy)ethyl)amino)butanamido)butanamide | 64 | 100 | – |
| (S)-2-((S)-2-((4-aminobenzyl)(methyl)amino)-3-methylbutanamido)-N-((3R,4S,5S)-3-methoxy-1-((S)-2-((1R,2R)-1-methoxy-2-methyl-3-oxo-3-(((S)-2-phenyl-1-(thiazol-2-yl)ethyl)amino)propyl)pyrrolidin-1-yl)-5-methyl-1-oxoheptan-4-yl)-N,3-dimethylbutanamide, trifluoroacetic acid | – | – | final purity (method not given) (TFA salt): 96.7% |
| methyl (S)-2-((2R,3R)-3-((S)-1-((9S,12S,15S,16R)-15-((S)-sec-butyl)-9,12-diisopropyl-16-methoxy-8,14-dimethyl-10,13-dioxo-5-oxa-2,8,11,14-tetraazaoctadecan-18-oyl)pyrrolidin-2-yl)-3-methoxy-2-methylpropanamido)-3-phenylpropanoate | 40 | 100 | – |
| (S)-N-((3R,4S,5S)-3-methoxy-1-((S)-2-((1R,2R)-1-methoxy-2-methyl-3-oxo-3-(((S)-2-phenyl-1-(thiazol-2-yl)ethyl)amino)propyl)pyrrolidin-1-yl)-5-methyl-1-oxoheptan-4-yl)-N,3-dimethyl-2-((S)-3-methyl-2-(methyl(2-(methylamino)ethyl)amino)butanamido)butanamide, bis trifluoroacetic acid | – | – | final purity (method not given) (TFA salt): 99.6% |
| methyl (S)-2-((2R,3R)-3-((S)-1-((7S,10S,13S,14R)-1-amino-13-((S)-sec-butyl)-7,10-diisopropyl-14-methoxy-6,12-dimethyl-8,11-dioxo-3-oxa-6,9,12-triazahexadecan-16-oyl)pyrrolidin-2-yl)-3-methoxy-2-methylpropanamido)-3-phenylpropanoate | 13 | 98.5 | – |
| methyl (S)-2-((2R,3R)-3-((S)-1-((8S,11S,14S,15R)-14-((S)-sec-butyl)-8,11-diisopropyl-15-methoxy-7,13-dimethyl-9,12-dioxo-2,7,10,13-tetraazaheptadecan-17-oyl)pyrrolidin-2-yl)-3-methoxy-2-methylpropanamido)-3-phenylpropanoate | 25 | 97.2 | – |
| (S)-2-((S)-2-((4-aminobenzyl) (methyl)amino)-3- methylbutanamido)-N- ((3R,4S,5S)-1-((S)-2-((1R,2R)- 3-(((1S,2R)-1-hydroxy-1- phenylpropan-2-yl)amino)-1-methoxy-2-methyl-3-oxopropyl)pyrrolidin-1-yl)-3-methoxy-5-methyl-1-oxoheptan-4-yl)-N,3-dimethylbutanamide | – | – | final purity (method not given): 99.1% |
| (S)—N-((3R,4S,5S)-3-methoxy-1-((S)-2-((1R,2R)-1-methoxy-2-methyl-3-oxo-3-(((S)-2-phenyl-1-(thiazol-2-yl)ethyl)amino)propyl)pyrrolidin-1-yl)-5-methyl-1-oxoheptan-4-yl)-N,3-dimethyl-2-((S)-3-methyl-2-(methyl(2-(piperazin-1-yl)ethyl)amino)butanamido)butanamide | 19 | 98.8 | – |
| (S)-2-((2R,3R)-3-((S)-1-((3R,4S,5S)-4-((S)-2-((S)-2-((2-aminoethyl)(methyl)amino)-3-methylbutanamido)-N,3-dimethylbutanamido)-3-methoxy-5-methylheptanoyl)pyrrolidin-2-yl)-3-methoxy-2-methylpropanamido)-3-phenylpropanoic acid | 8 | 93.6 | – |
| methyl ((2R,3R)-3-((S)-1-((3R,4S,5S)-4-((S)-2-((S)-2-((4-((((4-((S)-2-((S)-2-(6-(2,5-dioxo-2,5-dihydro-1H-pyrrol-1-yl)hexanamido)-3-methylbutanamido)-5-ureidopentanamido)benzyl)oxy)carbonyl)(methyl)amino)phenethyl)(methyl) amino)-3-methylbutanamido)-N,3-dimethylbutanamido)-3-methoxy-5-methylheptanoyl)pyrrolidin-2-yl)-3-methoxy-2-methylpropanoyl)-L-phenylalaninate 2,2,2-trifluoroacetate | – | – | conjugation yield: 70% |
| methyl ((2R,3R)-3-((S)-1-((3R,4S,5S)-4-((S)-2-((S)-2-((3-(6-(2,5-dioxo-2,5-dihydro-1H-pyrrol-1-yl)hexanamido)benzyl)(methyl)amino)-3-methylbutanamido)-N,3-dimethylbutanamido)-3-methoxy-5-methylheptanoyl)pyrrolidin-2-yl)-3-methoxy-2-methylpropanoyl)-L-phenylalaninate 2,2,2-trifluoroacetate | – | – | conjugation yield: 50% |
| (S)-2-((S)-2-((4-hydroxybenzyl)(methyl)amino)-3-methylbutanamido)-N-((3R,4S,5S)-3-methoxy-1-((S)-2-((1R,2R)-1-methoxy-2-methyl-3-oxo-3-(((S)-2-phenyl-1-(thiazol-2-yl)ethyl)amino)propyl)pyrrolidin-1-yl)-5-methyl-1-oxoheptan-4-yl)-N,3-dimethylbutanamide, trifluoroacetic acid | – | – | final purity (method not given) (TFA salt): 93.2% |

— patent US10912841B2 (PIERRE FABRE MEDICAMENT, priority 2014, dated 2021)
